Measured values reported in article PMC3741172.
Results are given in words; binding and its absence hold for the method and conditions named. Binding seen in cells or lysates may run through a third protein. Some results given as binding are weak or reduced against the parent protein; the word gives no strength.

Amino acid sequences for entries named in this document (tags omitted). Residues count along the entry.
UniProt Q924X6, residues 29-996: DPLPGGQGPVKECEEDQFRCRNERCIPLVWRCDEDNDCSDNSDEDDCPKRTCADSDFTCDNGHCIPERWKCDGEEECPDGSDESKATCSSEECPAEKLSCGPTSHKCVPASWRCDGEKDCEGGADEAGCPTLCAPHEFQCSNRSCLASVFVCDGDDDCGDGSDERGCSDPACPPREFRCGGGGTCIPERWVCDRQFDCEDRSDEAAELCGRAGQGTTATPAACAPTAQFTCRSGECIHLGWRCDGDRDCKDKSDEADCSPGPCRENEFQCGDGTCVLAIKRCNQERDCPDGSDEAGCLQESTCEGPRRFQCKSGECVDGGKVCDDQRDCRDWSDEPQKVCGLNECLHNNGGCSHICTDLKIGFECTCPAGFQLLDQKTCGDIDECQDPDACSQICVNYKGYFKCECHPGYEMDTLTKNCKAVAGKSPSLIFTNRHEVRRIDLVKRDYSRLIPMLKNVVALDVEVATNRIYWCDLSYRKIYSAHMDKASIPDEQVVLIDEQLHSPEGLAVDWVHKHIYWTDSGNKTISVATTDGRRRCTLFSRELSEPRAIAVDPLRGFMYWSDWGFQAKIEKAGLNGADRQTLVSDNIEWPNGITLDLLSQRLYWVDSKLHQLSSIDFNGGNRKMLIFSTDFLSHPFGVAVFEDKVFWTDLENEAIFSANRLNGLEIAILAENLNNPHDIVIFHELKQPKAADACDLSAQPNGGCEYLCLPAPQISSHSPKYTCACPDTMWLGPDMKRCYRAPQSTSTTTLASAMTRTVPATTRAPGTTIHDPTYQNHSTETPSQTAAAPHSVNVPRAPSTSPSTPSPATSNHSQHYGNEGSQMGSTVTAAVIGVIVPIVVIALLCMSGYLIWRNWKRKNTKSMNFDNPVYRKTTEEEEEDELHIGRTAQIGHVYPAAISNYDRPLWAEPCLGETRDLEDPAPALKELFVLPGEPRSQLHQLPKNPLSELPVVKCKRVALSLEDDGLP
UniProt P78509, residues 26-3460: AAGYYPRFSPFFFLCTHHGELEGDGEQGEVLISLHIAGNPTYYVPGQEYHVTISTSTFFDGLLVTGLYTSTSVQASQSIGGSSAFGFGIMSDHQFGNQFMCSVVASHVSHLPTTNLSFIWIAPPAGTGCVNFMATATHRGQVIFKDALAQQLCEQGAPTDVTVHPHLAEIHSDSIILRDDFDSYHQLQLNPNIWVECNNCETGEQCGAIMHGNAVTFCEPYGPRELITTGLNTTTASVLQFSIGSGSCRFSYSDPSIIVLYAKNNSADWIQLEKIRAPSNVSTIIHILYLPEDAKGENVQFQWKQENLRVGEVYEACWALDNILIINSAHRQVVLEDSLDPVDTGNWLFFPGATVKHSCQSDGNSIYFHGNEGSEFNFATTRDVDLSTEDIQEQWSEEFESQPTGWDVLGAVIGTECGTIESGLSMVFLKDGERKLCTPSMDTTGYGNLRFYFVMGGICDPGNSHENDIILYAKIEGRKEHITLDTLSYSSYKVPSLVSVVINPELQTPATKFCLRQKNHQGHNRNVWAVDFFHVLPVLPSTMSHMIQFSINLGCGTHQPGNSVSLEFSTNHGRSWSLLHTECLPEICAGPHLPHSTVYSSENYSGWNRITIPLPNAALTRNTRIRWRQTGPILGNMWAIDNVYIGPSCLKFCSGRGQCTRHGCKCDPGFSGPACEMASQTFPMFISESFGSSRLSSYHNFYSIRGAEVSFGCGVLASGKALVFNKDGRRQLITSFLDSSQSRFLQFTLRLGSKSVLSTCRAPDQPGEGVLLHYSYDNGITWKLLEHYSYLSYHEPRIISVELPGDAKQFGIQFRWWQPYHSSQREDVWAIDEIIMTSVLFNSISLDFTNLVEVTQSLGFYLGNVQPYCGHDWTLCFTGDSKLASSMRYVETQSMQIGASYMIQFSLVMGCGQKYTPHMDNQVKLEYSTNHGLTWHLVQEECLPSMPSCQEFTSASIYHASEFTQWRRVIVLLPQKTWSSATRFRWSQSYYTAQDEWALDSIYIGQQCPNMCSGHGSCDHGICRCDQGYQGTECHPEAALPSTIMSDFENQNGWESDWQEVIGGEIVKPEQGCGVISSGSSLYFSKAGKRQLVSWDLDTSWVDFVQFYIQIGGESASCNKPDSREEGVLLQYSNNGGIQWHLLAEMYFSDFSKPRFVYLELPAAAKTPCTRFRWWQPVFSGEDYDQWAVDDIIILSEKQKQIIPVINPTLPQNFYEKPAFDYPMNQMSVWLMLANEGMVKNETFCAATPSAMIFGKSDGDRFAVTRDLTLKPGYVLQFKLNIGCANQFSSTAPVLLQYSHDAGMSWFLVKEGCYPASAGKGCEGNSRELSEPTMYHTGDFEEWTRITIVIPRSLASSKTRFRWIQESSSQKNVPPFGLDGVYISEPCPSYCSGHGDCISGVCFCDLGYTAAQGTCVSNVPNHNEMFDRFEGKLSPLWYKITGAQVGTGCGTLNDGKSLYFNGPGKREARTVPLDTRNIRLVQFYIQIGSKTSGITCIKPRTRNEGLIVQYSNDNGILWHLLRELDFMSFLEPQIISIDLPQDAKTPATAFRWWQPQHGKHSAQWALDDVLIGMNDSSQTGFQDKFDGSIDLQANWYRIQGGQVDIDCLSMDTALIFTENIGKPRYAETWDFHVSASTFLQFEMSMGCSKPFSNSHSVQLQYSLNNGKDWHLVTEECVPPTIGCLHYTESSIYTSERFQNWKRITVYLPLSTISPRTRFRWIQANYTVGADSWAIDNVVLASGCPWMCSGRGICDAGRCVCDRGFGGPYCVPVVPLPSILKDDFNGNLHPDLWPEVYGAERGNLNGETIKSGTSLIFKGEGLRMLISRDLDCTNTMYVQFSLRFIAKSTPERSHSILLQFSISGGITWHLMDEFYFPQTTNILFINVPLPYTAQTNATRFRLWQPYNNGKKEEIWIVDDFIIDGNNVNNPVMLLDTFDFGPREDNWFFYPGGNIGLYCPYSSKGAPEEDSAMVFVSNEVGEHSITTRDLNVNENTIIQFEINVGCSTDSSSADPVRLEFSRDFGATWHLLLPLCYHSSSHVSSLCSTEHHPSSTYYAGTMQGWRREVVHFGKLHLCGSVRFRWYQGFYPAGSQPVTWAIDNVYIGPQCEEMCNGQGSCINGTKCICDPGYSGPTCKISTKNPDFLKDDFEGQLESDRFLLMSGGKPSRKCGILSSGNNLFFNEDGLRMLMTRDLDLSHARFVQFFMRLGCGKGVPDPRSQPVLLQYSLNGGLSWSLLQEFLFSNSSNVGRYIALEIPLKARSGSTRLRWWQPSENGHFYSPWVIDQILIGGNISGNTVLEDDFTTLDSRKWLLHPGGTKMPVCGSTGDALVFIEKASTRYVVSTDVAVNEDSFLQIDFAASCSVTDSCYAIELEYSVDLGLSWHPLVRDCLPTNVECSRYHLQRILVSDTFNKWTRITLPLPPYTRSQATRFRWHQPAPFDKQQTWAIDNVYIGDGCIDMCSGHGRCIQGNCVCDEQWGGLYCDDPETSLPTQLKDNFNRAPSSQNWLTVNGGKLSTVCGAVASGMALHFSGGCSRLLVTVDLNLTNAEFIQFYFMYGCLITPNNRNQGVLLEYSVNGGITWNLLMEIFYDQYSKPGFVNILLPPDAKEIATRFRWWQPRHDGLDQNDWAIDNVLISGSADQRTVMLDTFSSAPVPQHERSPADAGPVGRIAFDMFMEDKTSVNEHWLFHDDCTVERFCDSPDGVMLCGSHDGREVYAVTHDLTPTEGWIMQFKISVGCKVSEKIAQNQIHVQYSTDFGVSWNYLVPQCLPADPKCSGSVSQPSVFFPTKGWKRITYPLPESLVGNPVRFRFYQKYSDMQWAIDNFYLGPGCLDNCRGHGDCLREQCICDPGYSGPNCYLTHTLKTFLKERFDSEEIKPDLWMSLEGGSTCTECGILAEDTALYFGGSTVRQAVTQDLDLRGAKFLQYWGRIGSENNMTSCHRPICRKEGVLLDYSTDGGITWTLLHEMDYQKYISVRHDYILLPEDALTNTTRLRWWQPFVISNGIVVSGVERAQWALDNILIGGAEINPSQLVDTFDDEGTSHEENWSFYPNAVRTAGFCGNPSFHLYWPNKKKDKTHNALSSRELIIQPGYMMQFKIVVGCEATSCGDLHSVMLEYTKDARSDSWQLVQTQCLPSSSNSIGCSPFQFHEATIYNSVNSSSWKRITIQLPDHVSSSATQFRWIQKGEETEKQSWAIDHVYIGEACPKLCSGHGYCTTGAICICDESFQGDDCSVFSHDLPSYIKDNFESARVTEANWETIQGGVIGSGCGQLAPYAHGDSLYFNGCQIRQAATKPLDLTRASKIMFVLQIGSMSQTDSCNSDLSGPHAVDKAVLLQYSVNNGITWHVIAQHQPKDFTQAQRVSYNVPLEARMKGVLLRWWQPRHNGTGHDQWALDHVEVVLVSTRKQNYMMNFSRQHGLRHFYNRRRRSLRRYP

Molecular target: full-length mouse ApoER2 tagged with EGFP (mouse) (UniProt Q924X6)
Experiment: pull-down; ApoER2-GFP from HEK-293 extracts immobilised on anti-GFP Sepharose (4 h), incubated overnight with Reelin-enriched SH-SY5Y supernatants; bound and unbound fractions blotted for Reelin

binding: binds
Substance: Cont-Reelin (secreted Reelin from untransfected SH-SY5Y cells treated without Aβ42) (from UniProt P78509 26-3460)
